## Cell number after 72 h of treatment

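Human melanoma cells were exposed to a pair of drugs for 72 h in 1,536-well plates and read by automated microscopy after fixing and staining. Values are the number of DAPI-stained nuclei as a percentage of the DMSO control: 100 is no effect, lower means fewer cells. Concentrations were fixed for each drug; these are the lower of two levels, a fifth of the higher. No replicate spread is given; individual values may be noisy.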
An unselected part of the screen is shown.

First drug in all entries: etoposide, 20 nM, COc1cc([C@@H]2c3cc4c(cc3[C@@H](O[C@@H]3O[C@@H]5CO[C@@H](C)O[C@H]5[C@H](O)[C@H]3O)[C@H]3COC(=O)[C@H]23)OCO4)cc(OC)c1O

Compounds and concentrations:
PD173074: CCN(CC)CCCCNc1ncc2cc(-c3cc(OC)cc(OC)c3)c(NC(=O)NC(C)(C)C)nc2n1 at 100 nM
nilotinib: Cc1cn(-c2cc(NC(=O)c3ccc(C)c(Nc4nccc(-c5cccnc5)n4)c3)cc(C(F)(F)F)c2)cn1 at 200 nM
ZM336372: Cc1ccc(NC(=O)c2cccc(N(C)C)c2)cc1NC(=O)c1ccc(O)cc1 at 2000 nM
SNS-032: CC(C)(C)c1cnc(CSc2cnc(NC(=O)C3CCNCC3)s2)o1 at 10 nM
dovitinib: CN1CCN(c2ccc3nc(-c4c(N)c5c(F)cccc5[nH]c4=O)[nH]c3c2)CC1 at 100 nM
perifosine: CCCCCCCCCCCCCCCCCCOP(=O)([O-])OC1CC[N+](C)(C)CC1 at 400 nM
lenalidomide: Nc1cccc2c1CN(C1CCC(=O)NC1=O)C2=O (stereo unspecified) at 1000 nM
lapatinib: CS(=O)(=O)CCNCc1ccc(-c2ccc3ncnc(Nc4ccc(OCc5cccc(F)c5)c(Cl)c4)c3c2)o1 at 800 nM
KU-0063794: COc1ccc(-c2ccc3c(N4CCOCC4)nc(N4C[C@@H](C)O[C@@H](C)C4)nc3n2)cc1CO at 20 nM
KU-55933: O=c1cc(-c2cccc3c2Sc2ccccc2S3)oc(N2CCOCC2)c1 at 1000 nM
vincristine: CC[C@]1(O)C[C@H]2CN(CCc3c([nH]c4ccccc34)[C@@](C(=O)OC)(c3cc4c(cc3OC)N(C=O)[C@H]3[C@@](O)(C(=O)OC)[C@H](OC(C)=O)[C@]5(CC)C=CCN6CC[C@]43[C@@H]65)C2)C1 at 0.1 nM
BMS-536924: Cc1cc(N2CCOCC2)cc2[nH]c(-c3c(NC[C@@H](O)c4cccc(Cl)c4)cc[nH]c3=O)nc12 at 200 nM
L-779450: Oc1cc(-c2nc(-c3ccccc3)[nH]c2-c2ccncc2)ccc1Cl at 200 nM
cediranib: COc1cc2c(Oc3ccc4[nH]c(C)cc4c3F)ncnc2cc1OCCCN1CCCC1 at 400 nM
docetaxel: CC(=O)O[C@@]12CO[C@@H]1C[C@H](O)[C@@]1(C)C(=O)[C@H](O)C3=C(C)[C@@H](OC(=O)[C@H](O)[C@@H](NC(=O)OC(C)(C)C)c4ccccc4)C[C@@](O)([C@@H](OC(=O)c4ccccc4)[C@H]21)C3(C)C at 0.1 nM
YM155: COCC[n+]1c2c(n(Cc3cnccn3)c1C)C(=O)c1ccccc1C2=O at 0.4 nM
OSU-03012: NCC(=O)Nc1ccc(-n2nc(C(F)(F)F)cc2-c2ccc3c(ccc4ccccc43)c2)cc1 at 1000 nM
PF-04217903: OCCn1cc(-c2cnc3nnn(Cc4ccc5ncccc5c4)c3n2)cn1 at 1000 nM
tamatinib: COc1cc(Nc2ncc(F)c(Nc3ccc4c(n3)NC(=O)C(C)(C)O4)n2)cc(OC)c1OC at 400 nM
PLX4720: CCCS(=O)(=O)Nc1ccc(F)c(C(=O)c2c[nH]c3ncc(Cl)cc23)c1F at 80 nM
sorafenib: CNC(=O)c1cc(Oc2ccc(NC(=O)Nc3ccc(Cl)c(C(F)(F)F)c3)cc2)ccn1 at 400 nM
gemcitabine: Nc1ccn([C@@H]2O[C@H](CO)[C@@H](O)C2(F)F)c(=O)n1 at 0.4 nM

Second drug	A2058	IPC-298	C32
lapatinib	91.4	95.8	83.4
BMS-536924	90.9	84.0	94.3
tamatinib	76.8	79.4	114
sorafenib	99.8	97.8	88.6
ZM336372	93.3	83.9	90.0
OSU-03012	95.5	78.0	98.4
PLX4720	102	87.1	89.7
PD173074	97.7	105	95.9
PF-04217903	95.5	92.7	75.4
vincristine	27.7	92.5	97.1
KU-0063794	93.4	100	88.6
YM155	81.9	95.6	92.0
docetaxel	17.4	72.1	85.2
lenalidomide	97.8	98.8	85.6
L-779450	92.2	87.3	82.8
dovitinib	93.3	92.6	84.0
nilotinib	87.4	96.8	73.4
perifosine	91.8	98.8	104
SNS-032	94.4	98.5	88.3
KU-55933	87.8	101	93.6
gemcitabine	91.6	90.6	95.5
cediranib	90.9	94.5	96.4

Repeated from the top, 3 entries:

Second drug,A2058,IPC-298,C32
lapatinib,91.4,95.8,83.4
BMS-536924,90.9,84.0,94.3
tamatinib,76.8,79.4,114

Source: doi:10.1371/journal.pone.0140310, primary screening data, rounded.